Measurements as given in patent US8962271B2, “Fructosyl peptidyl oxidase” (Roche Diagnostics Operations, Inc., priority 2009, dated 2015).

Test system: HbA1c
Assay: Measurement of Proteinase N-digested HbA1c, 4AA/TODB/POD
Format: biochemical

B1: PnFPOX: fructosyl peptidyl oxidase derived from Phaeosphaeria nodorum, amino acid sequence SEQ ID NO:1, recombinant from E. coli (protein, listed as Phaeosphaeria nodorum)
chain: MAPSRANTSVIVVGGGGTIGSSTALHLVRSGYTPSNVTVLDAYPIPSSQSAGNDLNKIMGVSLRNPVDLQLALEARQMWNEDELFKKFFHNTGRLDCAHGEKDIADLKSGYQALVDAGLDATNEWLDSEDEILKRMPLLSRDQIKGWKAIFSKDGGWLAAAKAINAVGEYLRDQGVRFGFYGAGSFKAPLLAEGVCIGVETVDGTRYYADKVVLAAGAWSPTLVELHEQCVSKAWVYGHIQLTPEEAARYKNSPVVYNGDVGFFFEPNEHGVIKVCDEFPGFTRFKMHQPFGAKAPKRISVPRSHAKHPTDTIPDASDVSIRRAIATFMPQFKNKKMFNQAMCWCTDTADAALLICEHPEWKNFVLATGDSGHSFKLLPNIGKHVVELLEGTLADDLAHAWRWRPGSGDALKSRRSAPAKDLADMPGWNHDKPRANL
FVH detection from Hb (De-heme Hb sample 300 μM digested with Proteinase N, in words): not detected | FVH detected (De-heme HbA1c sample 300 μM digested with Proteinase N): 350 µM
